# Data: the supplement of paper PMC8728848
# Some of the results follow.
# B1: Gal 10 (Homo sapiens), Q05315 (protein)
# chain: MSLLPVPYTEAASLSTGSTVTIKGRPLVCFLNEPYLQVDFHTEMKEESDIVFHFQVCFGRRVVMNSREYGAWKQQVESKNMPFQDGQEFELSISVLPDKYQVMVNGQSSYTFDHRIKPEAVKMVQVWRDISLTKFNVSYLKR
# Tests used:
# Experiment in all cases: glycan array binding signal (z-score within array); higher = stronger binding
# Settings in all cases: glycan notation: IUPAC condensed, linker removed
# [1] = target: Neu5Ac(a2-3)Gal(b1-3)GlcNAc(b1-3)Gal(b1-3)GlcNAc
# Procedure, shortened: (§1)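 Glycan array binding is given as a within-array Z-score, which can be read as non-binding when negative. The arrays, 3228 of them, came from the Consortium for Functional Glycomics database and were retained only where the protein sequence was available. Z-scores were averaged across arrays of the same protein sequence at different concentrations or buffers and across linkers.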
# [2] = target: Neu5Ac(a2-3)Gal(b1-3)GlcNAc(b1-3)Gal(b1-4)GlcNAc
# Procedure, shortened: as §1
# [3] = target: Neu5Ac(a2-3)Gal(b1-3)GlcNAc(b1-3)GalNAc
# Procedure, shortened: as §1
# [4] = target: Neu5Ac(a2-3)Gal(b1-3)GlcNAc(b1-4)Gal(b1-4)Glc
# Procedure, shortened: as §1
# [5] = target: Neu5Ac(a2-3)Gal(b1-3)GlcNAc(b1-6)GalNAc
# Procedure, shortened: as §1
# [6] = target: Neu5Ac(a2-3)Gal(b1-3)GlcNAc6S
# Procedure, shortened: as §1
# [7] = target: Neu5Ac(a2-3)Gal(b1-3)[Fuc(a1-4)]GlcNAc
# Procedure, shortened: as §1
# [8] = target: Neu5Ac(a2-3)Gal(b1-3)[Fuc(a1-4)]GlcNAc(b1-3)Gal(b1-3)[Fuc(a1-4)]GlcNAc
# Procedure, shortened: as §1
# [9] = target: Neu5Ac(a2-3)Gal(b1-3)[Fuc(a1-4)]GlcNAc(b1-3)Gal(b1-4)[Fuc(a1-3)]GlcNAc
# Procedure, shortened: as §1
# [10] = target: Neu5Ac(a2-3)Gal(b1-3)[GlcNAc(b1-6)]GalNAc
# Procedure, shortened: as §1
# [11] = target: Neu5Ac(a2-3)Gal(b1-3)[Neu5Ac(a2-3)Gal(b1-4)]GlcNAc
# Procedure, shortened: as §1
# [12] = target: Neu5Ac(a2-3)Gal(b1-3)[Neu5Ac(a2-6)]GalNAc
# Procedure, shortened: as §1
# [13] = target: Neu5Ac(a2-3)Gal(b1-3)[Neu5Ac(a2-6)]GlcNAc(b1-3)[Fuc(a1-3)[Gal(b1-4)]GlcNAc(b1-6)]Gal(b1-4)Glc
# Procedure, shortened: as §1
# [14] = target: Neu5Ac(a2-3)Gal(b1-3)]Neu5Ac(a2-3)Gal(b1-4)]GlcNAc
# Procedure, shortened: as §1
# [15] = target: Neu5Ac(a2-3)Gal(b1-4)Glc
# Procedure, shortened: as §1
# [16] = target: Neu5Ac(a2-3)Gal(b1-4)GlcNAc
# Procedure, shortened: as §1
# [17] = target: Neu5Ac(a2-3)Gal(b1-4)GlcNAc(b1-2)Man
# Procedure, shortened: as §1
# [18] = target: Neu5Ac(a2-3)Gal(b1-4)GlcNAc(b1-2)Man(a1-3)[GlcNAc(b1-2)Man(b1-4)GlcNAc(b1-2)Man(a1-6)]Man(b1-4)GlcNAc(b1-4)GlcNAc
# Procedure, shortened: as §1
# [19] = target: Neu5Ac(a2-3)Gal(b1-4)GlcNAc(b1-2)Man(a1-3)[GlcNAc(b1-4)][Neu5Ac(a2-3)Gal(b1-4)GlcNAc(b1-2)Man(a1-6)]Man(b1-4)GlcNAc(b1-4)GlcNAc
# Procedure, shortened: as §1
# [20] = target: Neu5Ac(a2-3)Gal(b1-4)GlcNAc(b1-2)Man(a1-3)[Neu5Ac(a2-3)Gal(b1-4)GlcNAc(b1-2)Man(a1-6)]Man(b1-4)GlcNAc(b1-4)GlcNAc
# Procedure, shortened: as §1
# [21] = target: Neu5Ac(a2-3)Gal(b1-4)GlcNAc(b1-2)Man(a1-3)[Neu5Ac(a2-3)Gal(b1-4)GlcNAc(b1-2)Man(a1-6)]Man(b1-4)GlcNAc(b1-4)[Fuc(a1-6)]GlcNAc
# Procedure, shortened: as §1
# [22] = target: Neu5Ac(a2-3)Gal(b1-4)GlcNAc(b1-2)Man(a1-3)[Neu5Ac(a2-6)Gal(b1-4)GlcNAc(b1-2)Man(a1-6)]Man(b1-4)GlcNAc(b1-4)GlcNAc
# Procedure, shortened: as §1
# [23] = target: Neu5Ac(a2-3)Gal(b1-4)GlcNAc(b1-2)[Neu5Ac(a2-3)Gal(b1-4)GlcNAc(b1-4)]Man(a1-3)[GlcNAc(b1-4)][Neu5Ac(a2-3)Gal(b1-4)GlcNAc(b1-2)[Neu5Ac(a2-3)Gal(b1-4)GlcNAc(b1-6)]Man(a1-6)]Man(b1-4)GlcNAc(b1-4)GlcNAc
# Procedure, shortened: as §1
# [24] = target: Neu5Ac(a2-3)Gal(b1-4)GlcNAc(b1-2)[Neu5Ac(a2-3)Gal(b1-4)GlcNAc(b1-4)]Man(a1-3)[GlcNAc(b1-4)][Neu5Ac(a2-3)Gal(b1-4)GlcNAc(b1-4)Man(a1-6)]Man(b1-4)GlcNAc(b1-4)GlcNAc
# Procedure, shortened: as §1
# [25] = target: Neu5Ac(a2-3)Gal(b1-4)GlcNAc(b1-2)[Neu5Ac(a2-3)Gal(b1-4)GlcNAc(b1-6)]Man(a1-6)[Neu5Ac(a2-3)Gal(b1-4)GlcNAc(b1-2)Man(a1-3)]Man(b1-4)GlcNAc(b1-4)GlcNAc
# Procedure, shortened: as §1
# [26] = target: Neu5Ac(a2-3)Gal(b1-4)GlcNAc(b1-2)[Neu5Ac(a2-3)Gal(b1-4)GlcNAc(b1-6)]Man(a1-6)[Neu5Ac(a2-3)Gal(b1-4)GlcNAc(b1-2)Man(a1-3)][GlcNAc(b1-4)]Man(b1-4)GlcNAc(b1-4)GlcNAc
# Procedure, shortened: as §1
# [27] = target: Neu5Ac(a2-3)Gal(b1-4)GlcNAc(b1-3)Gal
# Procedure, shortened: as §1
# [28] = target: Neu5Ac(a2-3)Gal(b1-4)GlcNAc(b1-3)Gal(b1-3)GlcNAc
# Procedure, shortened: as §1
# [29] = target: Neu5Ac(a2-3)Gal(b1-4)GlcNAc(b1-3)Gal(b1-4)GlcNAc
# Procedure, shortened: as §1
# [30] = target: Neu5Ac(a2-3)Gal(b1-4)GlcNAc(b1-3)Gal(b1-4)GlcNAc(b1-2)Man(a1-3)[Neu5Ac(a2-3)Gal(b1-4)GlcNAc(b1-3)Gal(b1-4)GlcNAc(b1-2)Man(a1-6)]Man(b1-4)GlcNAc(b1-4)GlcNAc
# Procedure, shortened: as §1
# [31] = target: Neu5Ac(a2-3)Gal(b1-4)GlcNAc(b1-3)Gal(b1-4)GlcNAc(b1-3)Gal(b1-4)GlcNAc
# Procedure, shortened: as §1
# [32] = target: Neu5Ac(a2-3)Gal(b1-4)GlcNAc(b1-3)Gal(b1-4)GlcNAc(b1-3)Gal(b1-4)GlcNAc(b1-2)Man(a1-3)[Neu5Ac(a2-3)Gal(b1-4)GlcNAc(b1-3)Gal(b1-4)GlcNAc(b1-3)Gal(b1-4)GlcNAc(b1-2)Man(a1-6)]GalNAc
# Procedure, shortened: as §1
# [33] = target: Neu5Ac(a2-3)Gal(b1-4)GlcNAc(b1-3)Gal(b1-4)GlcNAc(b1-3)GalNAc
# Procedure, shortened: as §1
# [34] = target: Neu5Ac(a2-3)Gal(b1-4)GlcNAc(b1-3)Gal(b1-4)GlcNAc(b1-3)[Neu5Ac(a2-3)Gal(b1-4)GlcNAc(b1-3)Gal(b1-4)GlcNAc(b1-6)]GalNAc
# Procedure, shortened: as §1
# [35] = target: Neu5Ac(a2-3)Gal(b1-4)GlcNAc(b1-3)Gal(b1-4)GlcNAc(b1-6)[Gal(b1-3)]GalNAc
# Procedure, shortened: as §1
# [36] = target: Neu5Ac(a2-3)Gal(b1-4)GlcNAc(b1-3)Gal(b1-4)[Fuc(a1-3)]GlcNAc
# Procedure, shortened: as §1
# [37] = target: Neu5Ac(a2-3)Gal(b1-4)GlcNAc(b1-3)GalNAc
# Procedure, shortened: as §1
# [38] = target: Neu5Ac(a2-3)Gal(b1-4)GlcNAc(b1-3)[Neu5Ac(a2-3)Gal(b1-4)GlcNAc(b1-6)]GalNAc
# Procedure, shortened: as §1
# [39] = target: Neu5Ac(a2-3)Gal(b1-4)GlcNAc(b1-6)GalNAc
# Procedure, shortened: as §1
# [40] = target: Neu5Ac(a2-3)Gal(b1-4)GlcNAc(b1-6)[Gal(b1-3)]GalNAc
# Procedure, shortened: as §1
# [41] = target: Neu5Ac(a2-3)Gal(b1-4)GlcNAc(b1-6)[Neu5Ac(a2-3)Gal(b1-3)]GalNAc
# Procedure, shortened: as §1
# [42] = target: Neu5Ac(a2-3)Gal(b1-4)GlcNAc6S
# Procedure, shortened: as §1
# [43] = target: Neu5Ac(a2-3)Gal(b1-4)[Fuc(a1-3)]GlcNAc
# Procedure, shortened: as §1
# [44] = target: Neu5Ac(a2-3)Gal(b1-4)[Fuc(a1-3)]GlcNAc(b1-2)Man
# Procedure, shortened: as §1
binder,measurement,setting,value
B1,glycan array binding signal (z-score),[1],0.801
same,glycan array binding signal (z-score),[2],-0.762
same,glycan array binding signal (z-score),[3],-0.378
same,glycan array binding signal (z-score),[4],-0.333
same,glycan array binding signal (z-score),[5],-0.669
same,glycan array binding signal (z-score),[6],-0.204
same,glycan array binding signal (z-score),[7],-0.628
same,glycan array binding signal (z-score),[8],1.14
same,glycan array binding signal (z-score),[9],0.079
same,glycan array binding signal (z-score),[10],0.274
same,glycan array binding signal (z-score),[11],-0.057
same,glycan array binding signal (z-score),[12],0.019
same,glycan array binding signal (z-score),[13],-0.801
same,glycan array binding signal (z-score),[14],-0.322
same,glycan array binding signal (z-score),[15],-0.086
same,glycan array binding signal (z-score),[16],-0.362
same,glycan array binding signal (z-score),[17],0.406
same,glycan array binding signal (z-score),[18],-0.439
same,glycan array binding signal (z-score),[19],-0.661
same,glycan array binding signal (z-score),[20],-0.033
same,glycan array binding signal (z-score),[21],-0.07
same,glycan array binding signal (z-score),[22],-0.529
same,glycan array binding signal (z-score),[23],0.141
same,glycan array binding signal (z-score),[24],-0.495
same,glycan array binding signal (z-score),[25],0.669
same,glycan array binding signal (z-score),[26],-0.743
same,glycan array binding signal (z-score),[27],-0.51
same,glycan array binding signal (z-score),[28],-0.304
same,glycan array binding signal (z-score),[29],-0.765
same,glycan array binding signal (z-score),[30],-0.396
same,glycan array binding signal (z-score),[31],0.081
same,glycan array binding signal (z-score),[32],-0.403
same,glycan array binding signal (z-score),[33],2.09
same,glycan array binding signal (z-score),[34],0.429
same,glycan array binding signal (z-score),[35],-0.212
same,glycan array binding signal (z-score),[36],-0.727
same,glycan array binding signal (z-score),[37],0.39
same,glycan array binding signal (z-score),[38],-0.154
same,glycan array binding signal (z-score),[39],0.918
same,glycan array binding signal (z-score),[40],0.181
same,glycan array binding signal (z-score),[41],-0.263
same,glycan array binding signal (z-score),[42],-0.606
same,glycan array binding signal (z-score),[43],-0.456
same,glycan array binding signal (z-score),[44],2.57

# In a second layout: entries from further up
binder | measurement | setting | value
B1 | glycan array binding signal (z-score) | [24] | -0.495
same | glycan array binding signal (z-score) | [25] | 0.669
same | glycan array binding signal (z-score) | [26] | -0.743
